# Measured values: the supplement of paper PMC8728848
# This is one part of the list.
# B1: truncCC1G-10077 (Coprinopsis cinerea) (protein)
# chain: MHHHHHHHHPLPSPGPGWVLIQNGGTGKFLCSTPSGDIGTADGPETVYDYSVQWRFIQREYTGVYHVVNRATGAYLRQIGTSMPSIGLAEENDDELKDWWMLETYDNSEIGLASIISRWTGNVLDHYGGVSVQALDNNTENSYRSWAIIPARDWLTSFSLVNGQGGLCLAAQYAREETRLSTTANVNDFHAQWVFRKPSGSSGYTIQNKYNNHYVGGTSARWELVVCCNKYFGIRNTSTQKYLAIEDGQVTFQDQDMTDRKQCWELCSGRATDTSGNDYDLIYMDDDLLEVMIPWVGDKQGDLKHYIEKRATKKPPKDKGGWQLPAAGLIKKPKFNDIRQLLQELIEQWEWDVVNEEREQIQTLVSIDEAEARRLLGRRPHPDIVAAYQRSRSSTLFRIDRQGYFNIAGDRYVNIQGQYGDDSYFHIALPVGVRFGREQIRRFLRDSLDRSTSVTITPTTCKPPSGGPDYNRDPDSDGDNSWIKWTIAVVGTSAIKHSEL
# Key:
# Assay in all cases: glycan array binding signal (z-score within array); higher = stronger binding
# Conditions in all cases: glycan notation: IUPAC condensed, linker removed
# [1] = biological target: GlcNAc(b1-3)Gal(b1-4)GlcNAc(b1-3)Gal(b1-4)GlcNAc(b1-3)GalNAc
# In short: (§1)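 The binding signal is a Z-score computed within each array. Data were drawn from 3228 arrays in the Consortium for Functional Glycomics database, restricted to those with a known protein sequence. Scores were averaged over arrays of the same protein sequence at different concentrations or buffers, and over linkers, and negative values can be taken as non-binding.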
# [2] = biological target: GlcNAc(b1-3)Gal(b1-4)GlcNAc(b1-3)GalNAc
# In short: as §1
# [3] = biological target: GlcNAc(b1-3)Gal(b1-4)GlcNAc(b1-3)[GlcNAc(b1-3)Gal(b1-4)GlcNAc(b1-3)]GalNAc
# In short: as §1
# [4] = biological target: GlcNAc(b1-3)Gal(b1-4)GlcNAc(b1-6)[Gal(b1-3)]GalNAc
# In short: as §1
# [5] = biological target: GlcNAc(b1-3)Gal(b1-4)GlcNAc(b1-6)[GlcNAc(b1-3)Gal(b1-3)]GalNAc
# In short: as §1
# [6] = biological target: GlcNAc(b1-3)Gal(b1-4)GlcNAc(b1-6)[GlcNAc(b1-3)]Gal(b1-4)GlcNAc
# In short: as §1
# GlcNAc(b1-3)GalNAc = biological target: GlcNAc(b1-3)GalNAc
# In short: as §1
# GlcNAc(b1-3)Man = biological target: GlcNAc(b1-3)Man
# In short: as §1
# [7] = biological target: GlcNAc(b1-3)[GlcNAc(b1-4)][GlcNAc(b1-6)]GlcNAc
# In short: as §1
# [8] = biological target: GlcNAc(b1-3)[GlcNAc(b1-6)]Gal(b1-4)GlcNAc
# In short: as §1
# [9] = biological target: GlcNAc(b1-3)[GlcNAc(b1-6)]GalNAc
# In short: as §1
# [10] = biological target: GlcNAc(b1-4)Gal(b1-4)GlcNAc
# In short: as §1
# GlcNAc(b1-4)GlcNAc = biological target: GlcNAc(b1-4)GlcNAc
# In short: as §1
# [11] = biological target: GlcNAc(b1-4)GlcNAc(b1-4)GlcNAc
# In short: as §1
# [12] = biological target: GlcNAc(b1-4)GlcNAc(b1-4)GlcNAc(b1-4)GlcNAc(b1-4)GlcNAc
# In short: as §1
# [13] = biological target: GlcNAc(b1-4)GlcNAc(b1-4)GlcNAc(b1-4)GlcNAc(b1-4)GlcNAc(b1-4)GlcNAc
# In short: as §1
# [14] = biological target: GlcNAc(b1-4)[GlcNAc(b1-6)]GalNAc
# In short: as §1
# [15] = biological target: GlcNAc(b1-6)Gal(b1-4)GlcNAc
# In short: as §1
# GlcNAc(b1-6)GalNAc = biological target: GlcNAc(b1-6)GalNAc
# In short: as §1
# [16] = biological target: GlcNAc6S(b1-3)Gal(b1-4)GlcNAc
# In short: as §1
# Kdn(a2-3)Gal(b1-3)GalNAc = biological target: Kdn(a2-3)Gal(b1-3)GalNAc
# In short: as §1
# Kdn(a2-3)Gal(b1-3)GlcNAc = biological target: Kdn(a2-3)Gal(b1-3)GlcNAc
# In short: as §1
# Kdn(a2-3)Gal(b1-4)Glc = biological target: Kdn(a2-3)Gal(b1-4)Glc
# In short: as §1
# Kdn(a2-3)Gal(b1-4)GlcNAc = biological target: Kdn(a2-3)Gal(b1-4)GlcNAc
# In short: as §1
# [17] = biological target: Kdn(a2-3)Gal(b1-4)[Fuc(a1-3)]GlcNAc
# In short: as §1
# Kdn(a2-6)Gal(b1-4)GlcNAc = biological target: Kdn(a2-6)Gal(b1-4)GlcNAc
# In short: as §1
# [18] = biological target: Man(a1-2)Man(a1-2)Man(a1-3)Man
# In short: as §1
# [19] = biological target: Man(a1-2)Man(a1-2)Man(a1-6)[Man(a1-3)]Man
# In short: as §1
# Man(a1-2)Man(a1-3)Man = biological target: Man(a1-2)Man(a1-3)Man
# In short: as §1
# [20] = biological target: Man(a1-2)Man(a1-3)[Man(a1-2)Man(a1-6)]Man
# In short: as §1
# [21] = biological target: Man(a1-2)Man(a1-3)[Man(a1-2)Man(a1-6)]Man(a1-6)[Man(a1-2)Man(a1-2)Man(a1-3)]Man
# In short: as §1
# [22] = biological target: Man(a1-2)Man(a1-3)[Man(a1-2)Man(a1-6)]Man(a1-6)[Man(a1-2)Man(a1-2)Man(a1-3)]Man(b1-4)GlcNAc(b1-4)GlcNAc
# In short: as §1
# [23] = biological target: Man(a1-2)Man(a1-3)[Man(a1-6)]Man(a1-6)[Man(a1-2)Man(a1-3)]Man(b1-4)GlcNAc(b1-4)GlcNAc
# In short: as §1
# [24] = biological target: Man(a1-2)Man(a1-6)[Man(a1-3)]Man(a1-6)[Man(a1-2)Man(a1-2)Man(a1-3)]Man
# In short: as §1
# [25] = biological target: Man(a1-2)Man(a1-6)[Man(a1-3)]Man(a1-6)[Man(a1-2)Man(a1-2)Man(a1-3)]Man(b1-4)GlcNAc(b1-4)GlcNAc
# In short: as §1
# Man(a1-3)[Man(a1-6)]Man = biological target: Man(a1-3)[Man(a1-6)]Man
# In short: as §1
# [26] = biological target: Man(a1-3)[Man(a1-6)]Man(a1-6)[Man(a1-2)Man(a1-3)]Man(b1-4)GlcNAc(b1-4)GlcNAc
# In short: as §1
binder,measurement,setting,value
B1,glycan array binding signal (z-score),[1],-0.234
same,glycan array binding signal (z-score),[2],-0.488
same,glycan array binding signal (z-score),[3],-0.957
same,glycan array binding signal (z-score),[4],-0.169
same,glycan array binding signal (z-score),[5],-0.74
same,glycan array binding signal (z-score),[6],-0.807
same,glycan array binding signal (z-score),GlcNAc(b1-3)GalNAc,-0.729
same,glycan array binding signal (z-score),GlcNAc(b1-3)Man,-0.247
same,glycan array binding signal (z-score),[7],-0.693
same,glycan array binding signal (z-score),[8],-0.587
same,glycan array binding signal (z-score),[9],-0.893
same,glycan array binding signal (z-score),[10],-0.615
same,glycan array binding signal (z-score),GlcNAc(b1-4)GlcNAc,-0.418
same,glycan array binding signal (z-score),[11],-0.557
same,glycan array binding signal (z-score),[12],-0.873
same,glycan array binding signal (z-score),[13],-0.144
same,glycan array binding signal (z-score),[14],-0.863
same,glycan array binding signal (z-score),[15],-0.27
same,glycan array binding signal (z-score),GlcNAc(b1-6)GalNAc,-0.685
same,glycan array binding signal (z-score),[16],0.038
same,glycan array binding signal (z-score),Kdn(a2-3)Gal(b1-3)GalNAc,1.66
same,glycan array binding signal (z-score),Kdn(a2-3)Gal(b1-3)GlcNAc,-0.052
same,glycan array binding signal (z-score),Kdn(a2-3)Gal(b1-4)Glc,0.478
same,glycan array binding signal (z-score),Kdn(a2-3)Gal(b1-4)GlcNAc,0.697
same,glycan array binding signal (z-score),[17],1.26
same,glycan array binding signal (z-score),Kdn(a2-6)Gal(b1-4)GlcNAc,0.939
same,glycan array binding signal (z-score),[18],-1.01
same,glycan array binding signal (z-score),[19],0.989
same,glycan array binding signal (z-score),Man(a1-2)Man(a1-3)Man,-0.749
same,glycan array binding signal (z-score),[20],-0.833
same,glycan array binding signal (z-score),[21],-0.731
same,glycan array binding signal (z-score),[22],0.343
same,glycan array binding signal (z-score),[23],-0.602
same,glycan array binding signal (z-score),[24],-1.18
same,glycan array binding signal (z-score),[25],0.539
same,glycan array binding signal (z-score),Man(a1-3)[Man(a1-6)]Man,-0.352
same,glycan array binding signal (z-score),[26],-0.063

# Laid out differently: entries from further up
binder	measurement	setting	value
B1	glycan array binding signal (z-score)	[5]	-0.74
same	glycan array binding signal (z-score)	[17]	1.26
same	glycan array binding signal (z-score)	[18]	-1.01
